IC50 data for one compound are collected here from patent publication US20020040034A1, “Methods for treating allergic asthma using descarboethoxyloratadine” (priority 1997, published 2002).

What is called IC50 is the concentration that inhibits the measured activity by half.

The subject of the test is spleen cells (lymphocytes). In words: cells. The conditions noted are these: Mus musculus, Lymphocyte, 48 h, read-out: Inhibition of Concanavalin A Induced Stimulation of Lymphocytes (IC50).

For the compound `Clc1ccc2c(c1)CCc1cccnc1C2=C1CCNCC1` [DCL, 8-chloro-6,11-dihydro-11-(4-piperidylidene)-5H-benzo[5,6]cyclohepta[1,2-b]pyridine], the 50% inhibitory concentration (IC50) was determined as 5.6 µM.
